Reference: PubChem BioAssay AID1259308 (NCATS, 2017)
Test: 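Knock-downs that increase output of a recombinant reporter protein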 (primary screen). Cell system: human HEK293 embryonic kidney cells stably expressing firefly luciferase (HEK-CMV-Luc2-Hygro). Knock-down reagent: single siRNA against human genes, 0.8 pmol siRNA per well. Duration: 72 h. Measurement: 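Reporter luminescence and viable-cell signal on separate replicate plates, given as percent of non-targeting control and median/MAD z-scores, plus per-cell luciferase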. Reading the numbers: total luciferase, z-score: higher = more reporter protein produced. Rule for the call: 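Active when the median/MAD z-score for overall luciferase is greater than 3; a gene was taken forward for validation with new siRNAs if at least two of its three siRNAs passed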. Calls: active = raised luciferase; inactive = no rise.
Here is one part, drawn at random, of about 59,000 reagents tested. About 1,510 of all reagents (2.6%) count as active. 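Calls use total luciferase alone and ignore viability, so some active siRNAs may act by altering cell number.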 The numbers tell different reagents against one gene apart. Not all columns of the deposit are shown.

gene symbol	siRNA no.	total luciferase, z-score	outcome
NCAPD2	1	-0.294	inactive
NCAPD2	2	0.239	inactive
NCAPD2	3	-0.246	inactive
HLA-A	1	-0.488	inactive
HLA-A	2	0.524	inactive
HLA-A	3	-1.09	inactive
ADCY3	1	-0.608	inactive
ADCY3	2	-0.615	inactive
ADCY3	3	0.379	inactive
LHX4	1	1.26	inactive
LHX4	2	-0.183	inactive
LHX4	3	-0.0414	inactive
TGOLN2	1	-2.21	inactive
TGOLN2	2	-2.15	inactive
TGOLN2	3	0.855	inactive
PRAMEF7	1	1.03	inactive
PRAMEF7	2	0.188	inactive
PRAMEF7	3	1.34	inactive
FSTL5	1	0.263	inactive
FSTL5	2	-0.0274	inactive
FSTL5	3	-0.872	inactive
CXCL9	1	-0.869	inactive
CXCL9	2	-0.717	inactive
CXCL9	3	0.0202	inactive
COLEC10	1	-0.133	inactive
COLEC10	2	-2.28	inactive
COLEC10	3	1.2	inactive
CHM	1	-0.63	inactive
CHM	2	-0.461	inactive
CHM	3	-1.68	inactive
ERG	1	3.02	active
ERG	2	-0.565	inactive
ERG	3	-0.663	inactive
N4BP2	1	0.826	inactive
N4BP2	2	0.318	inactive
N4BP2	3	1.35	inactive
ACADS	1	-0.764	inactive
ACADS	2	-0.476	inactive
ACADS	3	3.41	active
GOLGA8G	1	0.678	inactive
GOLGA8G	2	-0.244	inactive
GOLGA8G	3	-0.76	inactive
SIPA1	1	1.68	inactive
SIPA1	2	-0.447	inactive
SIPA1	3	-0.905	inactive
HTR3C	1	0.41	inactive
HTR3C	2	-0.845	inactive
HTR3C	3	-0.707	inactive
PQBP1	1	0.564	inactive
PQBP1	2	0.409	inactive
PQBP1	3	2.24	inactive
ELAVL2	1	-0.468	inactive
ELAVL2	2	-0.623	inactive
ELAVL2	3	-0.603	inactive
PGAM5	1	4.71	active
PGAM5	2	-0.55	inactive
PGAM5	3	-0.815	inactive
